Results are given in words; binding and its absence hold for the method and conditions named. Binding can be weak; no strength is given.
Experiments:
[1] = molecular target: T1, Recombinant Human LPS Binding Protein (rhLBP) (human) (UniProt P18428); experiment: direct ELISA
T1 sequence (looked up): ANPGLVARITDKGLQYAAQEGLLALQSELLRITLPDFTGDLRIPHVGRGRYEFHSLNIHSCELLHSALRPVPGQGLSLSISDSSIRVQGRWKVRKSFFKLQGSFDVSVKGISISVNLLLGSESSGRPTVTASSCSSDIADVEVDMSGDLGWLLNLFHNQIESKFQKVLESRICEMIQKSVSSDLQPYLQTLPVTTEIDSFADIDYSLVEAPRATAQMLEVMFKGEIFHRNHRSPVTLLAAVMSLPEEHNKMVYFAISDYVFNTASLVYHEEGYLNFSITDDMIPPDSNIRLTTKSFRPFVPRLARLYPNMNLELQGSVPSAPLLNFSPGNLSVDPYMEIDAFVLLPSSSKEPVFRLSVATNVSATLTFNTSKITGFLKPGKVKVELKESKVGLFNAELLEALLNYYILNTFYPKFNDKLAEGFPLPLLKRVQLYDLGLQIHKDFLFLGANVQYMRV

[2] = molecular target: T1, Recombinant Human LPS Binding Protein (rhLBP) (human); experiment: direct ELISA, rhLBP coated at 4 ug/ml, E+13 phages, detection with HRP-conjugated anti-p8 antibody

M13KO7 Helper Phage (New England Biolabs) (bacteriophage M13 (M13KO7))
binding [1]: binds | binding [2]: binds

From patent publication US20150110745A1
